Results reported in US5264372A (Amylin Pharmaceuticals, Inc., priority 1991, dated 1993).
Values joined by “and” are separate entries in the source; they are usually repeats but may differ in a detail not shown here. Equal values may be shown once.

Test system: ^125 I-h CGRP binding sites in nucleus accumbens and surrounding regions
Test: Competition for 125I-h CGRP binding to nucleus accumbens area (basal forebrain) membranes
Design: species or system rat
Conditions: in brackets after IC50
Source text: From the ventral surface of rat brains, cuts were made rostral to the hypothalamus bounded laterally by the olfactory tracts and extending at a 45 angle medially from these tracts. This tissue, containing the nucleus accumbens and surrounding regions, was collected and weighed, and membranes prepared as described in Example I. The region from which tissue was collected as described above is here termed the basal forebrain, and includes the nucleus accumbens and surrounding regions.

CC(C)C[C@H](NC(=O)[C@H](CC(N)=O)NC(=O)[C@H](CC(N)=O)NC(=O)[C@H](CO)NC(=O)[C@H](CO)NC(=O)[C@H](CCCNC(=N)N)NC(=O)[C@@H](NC(=O)[C@H](CC(C)C)NC(=O)[C@H](Cc1ccccc1)NC(=O)[C@H](CC(N)=O)NC(=O)[C@H](C)NC(=O)[C@H](CC(C)C)NC(=O)[C@H](CCCNC(=N)N)NC(=O)[C@H](CCC(N)=O)NC(=O)[C@@H](NC(=O)[C@H](C)NC(=O)[C@@H]1CSSC[C@H](NC(=O)[C@@H](N)CCCCN)C(=O)N[C@@H](CC(N)=O)C(=O)N[C@@H]([C@@H](C)O)C(=O)N[C@@H](C)C(=O)N[C@@H]([C@@H](C)O)C(=O)N1)[C@@H](C)O)C(C)C)C(=O)NCC(=O)N1CCC[C@H]1C(=O)N[C@H](C(=O)N[C@@H](CC(C)C)C(=O)N1CCC[C@H]1C(=O)N1CCC[C@H]1C(=O)N[C@H](C(=O)N[C@@H](CC(N)=O)C(=O)N[C@H](C(=O)NCC(=O)N[C@@H](CO)C(=O)N[C@@H](CC(N)=O)C(=O)N[C@H](C(=O)N[C@@H](Cc1ccc(O)cc1)C(N)=O)[C@@H](C)O)C(C)C)[C@@H](C)O)C(C)C [r amylin, rat amylin]
Share of sites in 2 site fit: 57% and 46%
